The list is a part of this screen's results and no random one: it gathers tests that were run many times, whatever their T/C, doses with no T/C, and many T/C values between a quarter and a half above the control. Other doses and runs of a compound stand elsewhere. T/C is the treated group as % of the vehicle group. Some entries give survivors of the animals treated and no T/C: the source holds a T/C of zero for them, seemingly a mark for toxic or unscored doses. Some survivor counts are full or nearly so, which does not show that the dose was tolerated: survival well below the control is almost never listed, so the zero probably covers shortened survival too. Survivors were counted at the toxicity check, usually on the fifth day, unless a day is given; later deaths do not show. Schedules are NCI's codes, read here as Q, the interval in days (D) or hours (H), X, the number of doses. Marks such as (2×) say how often a value occurs here. Some entries were tested several times; the values are given in rising order. For survival time, this PubChem deposit counts one and a half times the control or more as active, and values a quarter to a half above the control carry no call in these data; other NCI protocols may use other cut-offs.
Test system: L1210 leukemia ip in BDF1 mice, survival T/C
Assay: NCI In Vivo Anticancer Drug Screen. Data for tumor model L1210 Leukemia (intraperitoneal) in B6D2F1 (BDF1) mice
Conditions: T/C endpoint: mean survival time, higher T/C = longer survival
[1] = dose: 100.0 mg/kg/injection, schedule: Q04DX003 (ip), vehicle: saline
[2] = dose: 200.0 mg/kg/injection, schedule: Q04DX003 (ip), vehicle: saline
[3] = dose: 400.0 mg/kg/injection, schedule: Q04DX003 (ip), vehicle: saline
[4] = dose: 200.0 mg/kg/injection, schedule: Q04DX003 (ip), vehicle: saline with Tween-80
[5] = dose: 100.0 mg/kg/injection, schedule: Q01DX001 (ip), vehicle: saline
[6] = dose: 200.0 mg/kg/injection, schedule: Q01DX001 (ip), vehicle: saline
[7] = dose: 400.0 mg/kg/injection, schedule: Q01DX001 (ip), vehicle: saline
[8] = dose: 100.0 mg/kg/injection, schedule: Q01DX009 (ip), vehicle: saline with Tween-80
[9] = dose: 400.0 mg/kg/injection, schedule: Q04DX003 (ip), vehicle: Klucel (hydroxypropylcellulose) (HPC)
[10] = dose: 200.0 mg/kg/injection, schedule: Q04DX003 (ip), vehicle: Klucel (hydroxypropylcellulose) (HPC)
[11] = dose: 40.0 mg/kg/injection, schedule: Q01DX001 (ip), vehicle: carboxymethylcellulose (CMC)

[Cu+2].[NH-]C(CC(N)=O)C(=O)O.[NH-]C(CC(N)=O)C(=O)O (stereo not given)
survivor count (dose: 50.0 mg/kg/injection, schedule: Q01DX009 (ip), vehicle: saline): 1 of 6 | survivor count [1]: 0 of 6 | survivor count [2]: 0 of 6 | survivor count [3]: 0 of 6

C/C(Cc1ccccc1)=N\[N+](C)(C)C
survivor count (dose: 300.0 mg/kg/injection, schedule: Q01DX009 (ip), vehicle: saline): 0 of 6 | survivor count [3]: 0 of 6

NC(=O)c1ccc[n+](CCCl)c1
survivor count (dose: 250.0 mg/kg/injection, schedule: Q01DX010 (ip), vehicle: saline): 4 of 6 | survivor count (dose: 500.0 mg/kg/injection, schedule: Q01DX010 (ip), vehicle: saline): 0 of 6

O=C(CC(=O)Nc1ccc([N+](=O)[O-])cc1)Nc1ccc([N+](=O)[O-])cc1
survivor count [4]: 6 of 6

CC(C)(C)C(=O)Nc1ccncc1
survivor count (dose: 50.0 mg/kg/injection, schedule: Q01DX001 (ip), vehicle: saline): 0 of 6 | survivor count [5]: 0 of 6 | survivor count [6]: 0 of 6

C1CCC(C2CCCC[N-]2)[N-]C1.C1CCC(C2CCCC[N-]2)[N-]C1.C1CCC(C2CCCC[N-]2)[N-]C1.[Fe+6] (stereo not given)
survivor count (dose: 40.0 mg/kg/injection, schedule: Q01DX001 (ip), vehicle: saline): 0 of 6 | survivor count (dose: 80.0 mg/kg/injection, schedule: Q01DX001 (ip), vehicle: saline): 0 of 6

CC(=O)c1ccccc1C
survivor count [7]: 0 of 6

C[N+](C)(C)CCCCCCCCCC[N+](C)(C)C
survivor count (dose: 1.56 mg/kg/injection, schedule: Q04DX003 (ip), vehicle: saline with Tween-80): 6 of 6 | survivor count (dose: 3.13 mg/kg/injection, schedule: Q04DX003 (ip), vehicle: saline with Tween-80): 4 of 6 | survivor count (dose: 6.25 mg/kg/injection, schedule: Q04DX003 (ip), vehicle: saline with Tween-80): 0 of 6 and 1 of 6 | survivor count (dose: 12.5 mg/kg/injection, schedule: Q04DX003 (ip), vehicle: saline with Tween-80): 0 of 6 | survivor count (dose: 25.0 mg/kg/injection, schedule: Q04DX003 (ip), vehicle: saline with Tween-80): 0 of 6 | survivor count (dose: 25.0 mg/kg/injection, schedule: Q04DX003 (ip), vehicle: saline): 0 of 6 | survivor count (dose: 50.0 mg/kg/injection, schedule: Q04DX003 (ip), vehicle: saline): 0 of 6 | survivor count [1]: 0 of 6 | survivor count [2]: 0 of 6 | survivor count [3]: 0 of 6

O=[N+]([O-])CC(Nc1ccc(Br)cc1)c1ccccc1 (stereo not given)
T/C [8]: 127 % of control

SCC(CS)c1nncc2ccccc12
survivor count [5]: 3 of 6 | survivor count [6]: 0 of 6 | survivor count [7]: 0 of 6

CCOC(=O)CC1NCCC2C1CCC(OC)C2OC (stereo not given)
survivor count [8]: 6 of 6 | survivor count [9]: 3 of 6

O=S1(=O)CCCC1C(O)(c1ccccc1)c1ccccc1 (stereo not given)
survivor count [8]: 6 of 6 | survivor count (dose: 200.0 mg/kg/injection, schedule: Q01DX009 (ip), vehicle: saline with Tween-80): 6 of 6 | survivor count (dose: 400.0 mg/kg/injection, schedule: Q01DX009 (ip), vehicle: saline with Tween-80): 6 of 6

CNc1ncnc2nc(Cl)[nH]c12
survivor count [6]: 0 of 6 | survivor count [7]: 1 of 6

CCN(c1ccccc1)P(I)(c1ccccc1)(c1ccccc1)c1ccccc1
survivor count (dose: 75.0 mg/kg/injection, schedule: Q01DX001 (ip), vehicle: other): 1 of 6 | survivor count (dose: 150.0 mg/kg/injection, schedule: Q01DX001 (ip), vehicle: other): 1 of 6 | survivor count (dose: 300.0 mg/kg/injection, schedule: Q01DX001 (ip), vehicle: other): 0 of 6

CSc1ccc(-c2nc3ncnc(N)c3[nH]2)cc1
survivor count (dose: 100.0 mg/kg/injection, schedule: Q01DX001 (ip), vehicle: gum acacia): 6 of 6

CC1(C)OC(=O)C(C(=O)O)C1c1ccccc1 (stereo not given)
survivor count [7]: 0 of 6

NP(=S)(Oc1ccc(Cl)cc1)Oc1ccc(Cl)cc1
survivor count (dose: 50.0 mg/kg/injection, schedule: Q04DX002 (ip), vehicle: gum acacia): 0 of 3 | survivor count (dose: 100.0 mg/kg/injection, schedule: Q04DX002 (ip), vehicle: gum acacia): 0 of 3 | survivor count (dose: 200.0 mg/kg/injection, schedule: Q04DX002 (ip), vehicle: gum acacia): 0 of 3 | survivor count (dose: 400.0 mg/kg/injection, schedule: Q04DX002 (ip), vehicle: gum acacia): 0 of 3

Cc1ccc(S(=O)(=O)/C=C(\C=C/c2ccccc2)c2ccccc2)cc1
survivor count (dose: 400.0 mg/kg/injection, schedule: Q04DX003 (ip), vehicle: acetone): 6 of 6

CC(C)C1=CC23CCC4C(C)(C(=O)O)CCCC4(C)C2CC1C1C(=O)OC(=O)C13 (stereo not given)
survivor count (dose: 100.0 mg/kg/injection, schedule: Q01DX009 (ip), vehicle: Klucel (hydroxypropylcellulose) (HPC)): 0 of 6 | survivor count (dose: 100.0 mg/kg/injection, schedule: Q04DX003 (ip), vehicle: Klucel (hydroxypropylcellulose) (HPC)): 4 of 6 | survivor count (dose: 200.0 mg/kg/injection, schedule: Q01DX009 (ip), vehicle: Klucel (hydroxypropylcellulose) (HPC)): 0 of 6 | survivor count [10]: 0 of 6 | survivor count (dose: 400.0 mg/kg/injection, schedule: Q01DX009 (ip), vehicle: Klucel (hydroxypropylcellulose) (HPC)): 0 of 6 (2×) | survivor count [9]: 0 of 6

CC(C)(O)CCC1=C(O)c2ccccc2C(=O)C1=O
survivor count [9]: 2 of 6

Cc1cc(C)c(CCN(C)C)c(C)c1C
survivor count [7]: 1 of 4

O=C1c2ccccc2C(=O)N1Cc1cccc(Nc2cc(=O)[nH]c(=O)[nH]2)c1
survivor count (dose: 100.0 mg/kg/injection, schedule: Q01DX001 (ip), vehicle: saline with Tween-80): 6 of 6 | survivor count (dose: 400.0 mg/kg/injection, schedule: Q01DX001 (ip), vehicle: saline with Tween-80): 6 of 6

S=C=NCc1cccc2ccccc12
survivor count [11]: 2 of 6 | survivor count (dose: 75.0 mg/kg/injection, schedule: Q01DX001 (ip), vehicle: carboxymethylcellulose (CMC)): 1 of 6 | survivor count (dose: 150.0 mg/kg/injection, schedule: Q01DX001 (ip), vehicle: carboxymethylcellulose (CMC)): 0 of 6 | survivor count (dose: 300.0 mg/kg/injection, schedule: Q01DX001 (ip), vehicle: carboxymethylcellulose (CMC)): 0 of 6

COC(C)C/C=N/Nc1nnc(N/N=C/CC(C)OC)c2ccccc12 (stereo not given)
survivor count (dose: 20.0 mg/kg/injection, schedule: Q01DX001 (ip), vehicle: carboxymethylcellulose (CMC)): 0 of 4 | survivor count [11]: 0 of 4 | survivor count (dose: 50.0 mg/kg/injection, schedule: Q01DX001 (ip), vehicle: carboxymethylcellulose (CMC)): 0 of 4 | survivor count (dose: 80.0 mg/kg/injection, schedule: Q01DX001 (ip), vehicle: carboxymethylcellulose (CMC)): 0 of 4 | survivor count (dose: 100.0 mg/kg/injection, schedule: Q01DX001 (ip), vehicle: carboxymethylcellulose (CMC)): 0 of 4 | survivor count (dose: 200.0 mg/kg/injection, schedule: Q01DX001 (ip), vehicle: carboxymethylcellulose (CMC)): 0 of 4 | survivor count (dose: 400.0 mg/kg/injection, schedule: Q01DX001 (ip), vehicle: carboxymethylcellulose (CMC)): 0 of 4

CN(C)CCCCC(C#N)(c1ccccc1)c1ccccc1
survivor count (dose: 60.0 mg/kg/injection, schedule: Q01DX001 (ip), vehicle: saline): 1 of 6 | survivor count (dose: 75.0 mg/kg/injection, schedule: Q01DX001 (ip), vehicle: saline): 0 of 6 | survivor count (dose: 150.0 mg/kg/injection, schedule: Q01DX001 (ip), vehicle: saline): 0 of 6 | survivor count (dose: 300.0 mg/kg/injection, schedule: Q01DX001 (ip), vehicle: saline): 0 of 6

COC(=O)c1ccc(CBr)cc1
survivor count [4]: 5 of 6

CC(=O)NC(N)=S
survivor count [10]: 3 of 6

CN(C(=O)/C=C/C(=O)O)c1ccccc1
survivor count (dose: 400.0 mg/kg/injection, schedule: Q01DX009 (ip), vehicle: saline): 4 of 6

COC(=O)C1C2c3ccccc3C(C1C(=O)OC)[n+]1ccccc12 (stereo not given)
survivor count [9]: 3 of 6

Reference: PubChem BioAssay AID248 (DTP/NCI, 2004)
